# Several values for one entry are separate records, joined by “and”; a condition that tells them apart may be missing. Equal entries are not always repeated. Structures can show the parent of a compound that is named as a salt. ± gives the standard deviation of the averaged measurements. Some of the results follow. Plates or batches differ in their baseline, so values are only roughly comparable.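 Assay uses culture-activated primary human stellate myofibroblasts; lipid droplet recovery indicates inactivation. Measured: proportion of Hoechst-counted cells over a plate-specific Bodipy cutoff, duplicate wells, DMSO and nortriptyline as per-plate negative and positive controls. A hit scores, control-normalized, above the plate's top-tenth-percentile nortriptyline wells or ranks among its three best wells. Final well concentrations not reported.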
# System: primary human hepatic stellate cells (donor 1)
# Assay: percent Bodipy-positive cells; higher = more lipid droplet accumulation
# Details: 48 h
# [1] = library stock concentration: 3.33 mM
# [2] = library stock concentration: 10 mM
# [3] = library stock concentration: 1 mM
# [4] = library stock concentration: 6.4 mM
# [5] = library stock concentration: 80 uM
# [6] = library stock concentration: 400 uM
# [7] = library stock concentration: 2 mM
structure (smiles),measurement,setting,value
CCN(CC)CCCC(C)Nc1c2ccc(Cl)cc2nc2ccc(OC)cc12 (stereo not drawn) [Quinacrine 2HCl],percent Bodipy-positive cells,[1],92.7 ± 10%
same,percent Bodipy-positive cells,[2],100%
CCN(CC)CCCC(C)Nc1c2ccc(Cl)cc2nc2ccc(OC)cc12 (stereo not drawn) [Quinacrine hydrochloride],percent Bodipy-positive cells,[2],100%
CCN(CC)CCCC(C)Nc1c2ccc(Cl)cc2nc2ccc(OC)cc12 (stereo not drawn) [Quinacrine dihydrochloride],percent Bodipy-positive cells,[2],100%
CCN(CC)CCCC(C)Nc1c2ccc(Cl)cc2nc2ccc(OC)cc12 (stereo not drawn) [Quinacrine dihydrochloride dihydrate],percent Bodipy-positive cells,,98.8 ± 1.6%
Cc1nc(C)c(Cl)c(O)c1Cl [Clopidol],percent Bodipy-positive cells,[2],49.6 ± 24%
same,percent Bodipy-positive cells,library stock concentration: 10.4 mM,9.72% and 13.4%
CCCCC[C@H](O)/C=C/[C@@H]1[C@@H](C/C=C\CCCCO)[C@@H](O)C[C@H]1O [Prostaglandin F2.alpha. Alcohol],percent Bodipy-positive cells,[3],14.6 ± 0.29%
COC(=O)[C@H]1[C@H]2C[C@@H]3c4[nH]c5cc(OC)ccc5c4CCN3C[C@H]2C[C@@H](OC(=O)c2cc(OC)c(OC)c(OC)c2)[C@@H]1OC [Reserpine],percent Bodipy-positive cells,,17.6 ± 5.7%
COc1cc2c(cc1OC)-c1cc3ccc(OC)c(OC)c3c[n+]1CC2 [Palmatine chloride],percent Bodipy-positive cells,,29.7 ± 1.8%
same,percent Bodipy-positive cells,[1],11.1 ± 2.9%
same,percent Bodipy-positive cells,[2],36.6% and 18.7%
CC(C)C[C@H](NC(=O)[C@@H](O)[C@H](N)Cc1ccccc1)C(=O)O [Bestatin hydrochloride],percent Bodipy-positive cells,[2],55.4 ± 1.6%
CC(C)C[C@H](NC(=O)[C@@H](O)[C@H](N)Cc1ccccc1)C(=O)O [Bestatin (hydrochloride)],percent Bodipy-positive cells,[3],6.986 ± 0.059%
CC(C)C[C@H](NC(=O)[C@@H](O)[C@H](N)Cc1ccccc1)C(=O)O,percent Bodipy-positive cells,[2],10.5 ± 0.99%
CC(C)C[C@H](NC(=O)[C@@H](O)[C@H](N)Cc1ccccc1)C(=O)O [Bestatin],percent Bodipy-positive cells,[2],7.84 ± 1.4%
same,percent Bodipy-positive cells,library stock concentration: 16.2 mM,22.5 ± 4.5%
O=C(O)CN(CCOCCOCCN(CC(=O)O)CC(=O)O)CC(=O)O,percent Bodipy-positive cells,[2],46 ± 5.3%
C=CCc1ccc(O)c(-c2ccc(O)c(CC=C)c2)c1 [Honokiol],percent Bodipy-positive cells,[1],7.43 ± 0.41%
same,percent Bodipy-positive cells,[2],35.9 ± 1.5%
CNC(=C[N+](=O)[O-])NCCSCc1ccc(CN(C)C)o1 [Ranitidine],percent Bodipy-positive cells,[1],7.3 ± 0.4%
same,percent Bodipy-positive cells,[4],20.6 ± 1.3%
same,percent Bodipy-positive cells,[2],44.3% and 32%
CNC(=C[N+](=O)[O-])NCCSCc1ccc(CN(C)C)o1 [Ranitidine hydrochloride],percent Bodipy-positive cells,,28.1 ± 2.1%
same,percent Bodipy-positive cells,[2],14.3% and 6.37%
CNC(=C[N+](=O)[O-])NCCSCc1ccc(CN(C)C)o1 [Ranitidine HCl],percent Bodipy-positive cells,[4],7.61 ± 0.26%
CN(C)CCCSc1ccccc1NC(=O)/C=C/c1ccccc1 [Cinanserin hydrochloride],percent Bodipy-positive cells,[2],40.7 ± 1.1%
CN(C)CCCSc1ccccc1NC(=O)/C=C/c1ccccc1 [Cinanserin],percent Bodipy-positive cells,library stock concentration: 5.9 mM,31.5 ± 2.5%
same,percent Bodipy-positive cells,[2],30.8 ± 8.7%
"CC(C)(C)c1ccc(S(=O)(=O)Nc2ccc(-n3ccnc3)cc2)cc1 [Stem-Cell Factor/c-Kit Inhibitor, ISCK03]",percent Bodipy-positive cells,[1],9.97 ± 1.2%
Cl.Cl.OCCN1CCN(CC/C=C2/c3ccccc3Sc3ccc(C(F)(F)F)cc32)CC1 [cis-(Z)-Flupenthixol dihydrochloride],percent Bodipy-positive cells,[2],95.2 ± 2.8%
C[C@@H](O)CCC[C@H](O)/C=C/C1=C(C/C=C\CCCC(=O)O)C(=O)CC1 [19(R)-hydroxy Prostaglandin B2],percent Bodipy-positive cells,[3],10 ± 0.47%
O=C1C=CC(=C(c2ccc(O)cc2)c2ccc(O)cc2)C=C1 [Rosolic acid],percent Bodipy-positive cells,[2],58.3 ± 4.5%
CSc1cccc(Nc2ncc3cc(-c4c(Cl)cccc4Cl)c(=O)n(C)c3n2)c1,percent Bodipy-positive cells,[1],78.89 ± 0.39%
same,percent Bodipy-positive cells,[2],73.3 ± 3.7%
CCOC(=O)Nc1ccc2c(c1)N(C(=O)CCN1CCOCC1)c1ccccc1S2 [Moricizine hydrochloride],percent Bodipy-positive cells,,6.69 ± 0.54%
O=c1c(-c2ccc(O)cc2)coc2cc(O)cc(O)c12 [Genistein],percent Bodipy-positive cells,[3],9.75 ± 0.5%
same,percent Bodipy-positive cells,[1],9.9 ± 3.2%
same,percent Bodipy-positive cells,library stock concentration: 19.2 mM,10.1 ± 0.26%
OCc1ccc(-c2ccc(-c3ccc(CO)s3)o2)s1,percent Bodipy-positive cells,[1],60.9 ± 32%
same,percent Bodipy-positive cells,[2],59.2 ± 9.1%
N[C@H](Cc1ccccc1)C(=O)O [D-phenylalanine],percent Bodipy-positive cells,[2],43.8 ± 9.2%
O=C(O)c1ccc(Nc2ncc3c(n2)-c2ccc(Cl)cc2C(c2c(F)cccc2F)=NC3)cc1,percent Bodipy-positive cells,[5],10.7 ± 1.6%
same,percent Bodipy-positive cells,[6],9.34 ± 4%
same,percent Bodipy-positive cells,[7],8.62 ± 7.1%
same,percent Bodipy-positive cells,[1],9.2 ± 0.2%
same,percent Bodipy-positive cells,[2],15.5% and 7.26%
CNCC[C@H](Oc1cccc2ccccc12)c1cccs1 [Duloxetine],percent Bodipy-positive cells,[2],95.46 ± 0.33%
Nc1c2c(nc3c1CCC3)CCCC2,percent Bodipy-positive cells,[2],13 ± 6%
Cc1cc(N2CCOCC2)ccc1Nc1nc(NC2CCCCC2)c2[nH]cnc2n1,percent Bodipy-positive cells,[1],37.7 ± 1.4%
same,percent Bodipy-positive cells,[2],51.3 ± 14%
CC[C@H]1OC(=O)[C@H](C)[C@@H](O[C@H]2C[C@@](C)(OC)[C@@H](O)[C@H](C)O2)[C@H](C)[C@@H](O[C@@H]2O[C@H](C)C[C@H](NC)[C@H]2O)[C@](C)(O)C[C@@H](C)CN(C)[C@H](C)[C@@H](O)[C@]1(C)O,percent Bodipy-positive cells,[2],57.8 ± 3.7%
CC(=O)NNC(=O)N1Cc2ccccc2Oc2ccc(Cl)cc21,percent Bodipy-positive cells,[2],18.4% and 6.26%
OC1CCC(Nc2nc(-c3ccccc3)nc3[nH]ccc23)CC1 (stereo not drawn),percent Bodipy-positive cells,[2],7.33 ± 3.4%
O=S(=O)(NCCNCC=Cc1ccc(Br)cc1)c1cccc2cnccc12,percent Bodipy-positive cells,[1],18.4 ± 8.4%
same,percent Bodipy-positive cells,[2],65.8 ± 9.9%
CNC[C@H](O)c1cccc(O)c1 [Phenylephrine HCl],percent Bodipy-positive cells,[1],6.93 ± 0.18%
same,percent Bodipy-positive cells,[2],10.2 ± 2.1%
CNC[C@H](O)c1cccc(O)c1 [Phenylephrine hydrochloride],percent Bodipy-positive cells,[2],27.2% and 21.5%
[Cl-].[Li+] [Lithium Chloride],percent Bodipy-positive cells,[2],48.5 ± 16%
Cc1nc(Nc2n[nH]c3c2CN(C(=O)N[C@H](CN(C)C)c2ccccc2)C3(C)C)c2sccc2n1,percent Bodipy-positive cells,[5],7.65 ± 0.7%
same,percent Bodipy-positive cells,[6],18.9 ± 2.4%
same,percent Bodipy-positive cells,[7],53.4 ± 0.84%
same,percent Bodipy-positive cells,[1],76.2 ± 6.4%
same,percent Bodipy-positive cells,[2],94.52 ± 0.57%
CN1C(=O)CC(C)(c2ccccc2)C1=O (stereo not drawn),percent Bodipy-positive cells,[2],25.8 ± 6.7%
CCOc1ccn(-c2ccc(F)cc2)c(=O)c1C(=O)Nc1ccc(Oc2ccnc(N)c2Cl)c(F)c1,percent Bodipy-positive cells,[5],16.3 ± 7.4%
same,percent Bodipy-positive cells,[6],14.5 ± 1.8%
same,percent Bodipy-positive cells,[7],11.3 ± 1.2%
same,percent Bodipy-positive cells,[1],4.71 ± 2.6%
same,percent Bodipy-positive cells,[2],14.5% and 13.9%
CN1CCN(C2=Nc3cc(Cl)ccc3Nc3ccccc32)CC1 [Clozapine],percent Bodipy-positive cells,[2],66.3 ± 5.6%
CCn1cc(-c2ccnc3[nH]c(-c4cccc(CN(C)C)c4)cc23)c(-c2ccc(NC(=O)N(C)C)cc2)n1,percent Bodipy-positive cells,[5],10.2 ± 5.6%
same,percent Bodipy-positive cells,[6],28.5 ± 20%
same,percent Bodipy-positive cells,[7],36.7 ± 4.6%
"CCCCCCN(CCCCCC)C(=O)Cc1c(-c2ccc(F)cc2)[nH]c2ccccc12 [N,N-Dihexyl-2-(4-fluorophenyl)indole-3-acetamide]",percent Bodipy-positive cells,[2],52.4 ± 2.7%
CCCCCCN(CCCCCC)C(=O)Cc1c(-c2ccc(F)cc2)[nH]c2ccccc12,percent Bodipy-positive cells,[2],10.1 ± 0.91%
CCN(CC)CCNC(=O)c1ccc(NC(C)=O)cc1 [Acecainide hydrochloride],percent Bodipy-positive cells,[4],10.7 ± 0.52%
CCN(CC)CCNC(=O)c1ccc(NC(C)=O)cc1 [N-Acetylprocainamide hydrochloride],percent Bodipy-positive cells,[2],43.6 ± 3.4%
CCN(CC)CCN(Cc1ccc(-c2ccc(C(F)(F)F)cc2)cc1)C(=O)Cn1c(SCc2ccc(F)cc2)nc(=O)c2c1CCC2,percent Bodipy-positive cells,[1],95.2 ± 4.5%
same,percent Bodipy-positive cells,[2],100%
N#C[C@@H]1CCCN1C(=O)CNC12CC3CC(CC(O)(C3)C1)C2 [Vildagliptin (LAF-237)],percent Bodipy-positive cells,[1],11.2 ± 3.6%
same,percent Bodipy-positive cells,[2],12.9 ± 0.9%
O=C(O)CCCC=CCC1C(O)CC(O)C1C=CC(O)COc1cccc(C(F)(F)F)c1 [15(S)-Fluprostenol],percent Bodipy-positive cells,[3],14 ± 4.5%
CC(C)(CO)[C@@H](O)C(=O)NCCCO [Dexpanthenol],percent Bodipy-positive cells,library stock concentration: 9.7 mM,0.963 ± 0.81%
"COC(=O)c1ccc2c(c1)NC(=O)/C2=C(\Nc1ccc(N(C)C(=O)CN2CCN(C)CC2)cc1)c1ccccc1 [Intedanib  (BIBF 1120, Vargatef) (2 mM)]",percent Bodipy-positive cells,[7],57.4 ± 5.5%
"COC(=O)c1ccc2c(c1)NC(=O)/C2=C(\Nc1ccc(N(C)C(=O)CN2CCN(C)CC2)cc1)c1ccccc1 [Intedanib (BIBF 1120, Vargatef) (0.4 mM)]",percent Bodipy-positive cells,[6],34.3 ± 0.12%
CCOC(=O)[C@H](CCc1ccccc1)N[C@@H](C)C(=O)N1[C@H](C(=O)O)C[C@H]2CCCC[C@@H]21 [Trandolapril],percent Bodipy-positive cells,[2],46% and 22.1%
O=C(O[C@@H]1Cc2c(O)cc(O)cc2O[C@@H]1c1cc(O)c(O)c(O)c1)c1cc(O)c(O)c(O)c1 [(-)-Epigallocatechin Gallate],percent Bodipy-positive cells,[3],8.27 ± 1.8%
O=C(O[C@@H]1Cc2c(O)cc(O)cc2O[C@@H]1c1cc(O)c(O)c(O)c1)c1cc(O)c(O)c(O)c1 [Epigallocatechin gallate],percent Bodipy-positive cells,[5],29.5 ± 1.4%
same,percent Bodipy-positive cells,[6],32.6 ± 1%
same,percent Bodipy-positive cells,[7],39.2 ± 6.8%
same,percent Bodipy-positive cells,[2],9.25% and 29.2%
CC(C)C[C@H](NC(=O)CNC(=O)c1cc(Cl)ccc1Cl)B(O)O,percent Bodipy-positive cells,[1],65.3 ± 13%
same,percent Bodipy-positive cells,[2],76 ± 2.1%
CCCCC[C@H](O)/C=C/[C@H]1C=CC(=O)[C@@H]1C/C=C\CCCC(=O)O [Prostaglandin A2],percent Bodipy-positive cells,[3],12.7% and 15.2%
O=C1NC(=O)/C(=C/c2ccc(-c3ccc(F)cc3O)o2)S1,percent Bodipy-positive cells,[6],25.6 ± 1.6%
same,percent Bodipy-positive cells,[3],6.42 ± 0.65%
same,percent Bodipy-positive cells,[7],43.8 ± 5.1%
same,percent Bodipy-positive cells,[1],20.2 ± 3.2%
CC(C)CCN1c2nc(Nc3cc(F)c(O)c(F)c3)ncc2N(C)C(=O)C1C (stereo not drawn),percent Bodipy-positive cells,[5],9.15 ± 4.9%
same,percent Bodipy-positive cells,[6],7.84% and 10.3%
same,percent Bodipy-positive cells,[7],4.18% and 6.71%
same,percent Bodipy-positive cells,[1],4.2 ± 1.6%
Cc1cnc(Nc2ccc(N3CCN(C)CC3)cc2)nc1Nc1cccc(S(=O)(=O)NC(C)(C)C)c1,percent Bodipy-positive cells,[1],68.9 ± 9.8%
same,percent Bodipy-positive cells,[2],98.483 ± 0.064%
OC[C@@H](O)[C@@H](O)CO,percent Bodipy-positive cells,[2],28.3 ± 1.3%
"CCCn1c(=O)c2[nH]c(-c3ccccc3)nc2n(CCC)c1=O [1,3-Dipropyl-8-phenylxanthine]",percent Bodipy-positive cells,[2],6.98 ± 1.6%
O=C(Nc1cc(C(F)(F)F)cc(C(F)(F)F)c1)c1cc(Cl)ccc1O,percent Bodipy-positive cells,[2],99.11 ± 0.69%
NS(=O)(=O)c1cc2c(cc1Cl)N=C(CSCc1ccccc1)NS2(=O)=O [Benzthiazide],percent Bodipy-positive cells,,9.03 ± 1.3%
same,percent Bodipy-positive cells,[2],11.8 ± 1.6%
"NCCCn1cc(C2=C(c3c[nH]c4ccccc34)C(=O)NC2=O)c2ccccc21 [Bisindolylmaleimide III, Hydrochloride]",percent Bodipy-positive cells,[1],6.59 ± 1.3%
Clc1ccc2c(c1)N=C(N1CCNCC1)c1ccccc1N2 [N-Desmethylclozapine],percent Bodipy-positive cells,[2],52.7 ± 4.1%
CC(=O)OC/C=C(C)/C=C/C=C(C)/C=C/C1=C(C)CCCC1(C)C [Retinyl acetate],percent Bodipy-positive cells,[2],20.8 ± 4.8%
CC(=O)OC/C=C(C)/C=C/C=C(C)/C=C/C1=C(C)CCCC1(C)C [Vitamin a (acetate)],percent Bodipy-positive cells,library stock concentration: 6.1 mM,7.99 ± 0.52%
Cc1ccc(C(=O)Nc2ccc(CN3CCN(C)CC3)c(C(F)(F)F)c2)cc1C#Cc1cnc2cccnn12,percent Bodipy-positive cells,[6],85.51 ± 0.84%
same,percent Bodipy-positive cells,[7],96.02 ± 0.13%
same,percent Bodipy-positive cells,[2],97.94 ± 0.47%
